Z-score data for 105 sequences are collected here from PubChem BioAssay AID1347423 (Functional Genomics Laboratory (NCATS/FGL), 2020).

Hit rate of the full screen: of about 52,000 sequences, about 210 (0.4%) were called active.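 Rule for the calls: active = gene whose silencing raises cell survival under the drug, median off-target-corrected z-score across its silencing RNAs 2 or more; inactive = the rest.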 The list shows a part of the results.

The nature of this experiment: Resistance to Poly (ADP-Ribose) Polymerase inhibitor: Gene Identification via Genome-wide siRNA Screen. The note with it: mouse BRCA2 R2336H ES cells, olaparib, CellTiter-Glo viability; hits give high values. The gist of the method:
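Genome-wide siRNA screen (3 siRNAs/gene, 20 nM) in mouse ES cells carrying hypomorphic BRCA2 R2336H; olaparib 500 nM added 48 h post-transfection, CellTiter-Glo viability 72 h later. Normalized to plate-median negative control; MAD z-scores, gene median, seed-adjusted.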
Background: ATP-based viability assays read luminescence as a measure of living cells.
Turning to CCUUCUGAAACCUAGCUCATT against Tradd, the z-score was inactive: 0.716.

With GGGUCCUCUUUAAAAGGCUTT against Smc6l1, the z-score was inactive: 0.0836.

Turning to CCGUGGGAUUUAAGAUAUCTT against Rab34, the z-score is inactive: 1.57.

As to GGUUAUACCAGUCAUGACATT against BC005537, the z-score is inactive: 0.171.

As to CCUCGCUAUAGAUUUUAACTT against Art2b, the z-score was inactive: 0.76.

Turning to GCUUCAGACCUAUUUACCATT against Wdr26, the z-score was inactive: -2.21.

As to GGGUGUUUGAAUCUAGUAUTT against Nktr, the z-score is inactive: 0.519.

With GGUCCACCUGUGAAUGUGATT against Glra4, the z-score is inactive: -1.36.

GGGAAGUGACCUUCUACAGTT against Ms4a10: the z-score was inactive: 0.418.

CCAAGGGUAUGUCCAUCAUTT against MGC78233: the z-score was inactive: 0.394.

Regarding GGCUAACUCCCAUAAAGAUTT against BC026374, the z-score is inactive: 0.185.

As to GCAGAUUAGCUUCGUCAACTT against Top2a, the z-score is inactive: -2.19.

As to CGAACCUAAGGGUUACUAUTT against Tgfb3, the z-score is inactive: -1.24.

On to GGCCAAAAGUGUUCUCUACTT against Olfr1101, for which the z-score was inactive: -0.109.

In the case of “CAUCUGUACUACAAACUAATT against 1100001G20Rik”, the z-score was inactive: -0.572.

Take CCCUACUAUUGACGAAAACTT against Hpn: the z-score was inactive: 0.505.

Consider CCCUUACAUCCAUCAACUATT against Dcbld2, for which the z-score was inactive: -0.65.

For GGCACAAGCCAAAGUAUUUTT against Igbp1, the z-score was inactive: 0.0335.

On to GGAGCAGAAAGAAGAACUGTT against Bmp10, for which the z-score was inactive: -1.65.

Consider GGCUAUAAAAGCACAGUUUTT against Slc25a26, for which the z-score was inactive: 0.17.

With GGGUAUUUCCACUUCAUAGTT against BC031140, the z-score is inactive: -1.28.

On to GGAAAUCAACCACUUUCUCTT against Olfr1494, for which the z-score is inactive: -0.237.

In the case of GGAGUAUGCACCACUCAAATT against Acrv1, the z-score was inactive: -0.114.

As for GGUCCCUGUCAAGACCAAATT against Prap1, the z-score was inactive: 0.589.

Turning to GGCCUUGUAUUACCAUCGATT against Ppp1r9b, the z-score was inactive: 0.523.

On to GGAAUCCUCUUCAGACAAATT against Hivep1, for which the z-score is inactive: 0.392.

For CCUGACAGACCGACAAGUGTT against Hoxc11, the z-score was inactive: -0.816.

On to GGGUGUGGCUGACUUUGAUTT against Otof, for which the z-score was inactive: -0.723.

Consider GAUGCAAGAUGACAAGACATT against Rgs6, for which the z-score was inactive: 0.614.

For the sequence AAGCCCAUAUACUGAAGGUTT against Klk22, the z-score is inactive: -1.3.

Turning to CGAGGAGUUGGAUUUCAGGTT against Dnmbp, the z-score was inactive: 1.28.

Consider GCCUUCCACUACCUUACGUTT against Kcnk3, for which the z-score is inactive: 2.17.

Turning to CCCUAACACUGCUACCACGTT against Zfp36l3, the z-score is inactive: -0.934.

With GCAAGGAGGUCCAACUAAGTT against Fzd8, the z-score was inactive: -0.568.

“GGCCAAGAACUCCAAGCAUTT against C130058G22Rik”: the z-score was inactive: -0.283.

For CCAUUUGUCUAUGAAUGUGTT against Tm6sf1, the z-score is inactive: -1.17.

Consider “GGCAUUUGACCCAGAAGACTT against 1110049B09Rik”, for which the z-score is inactive: 1.2.

On to GCACCACUGCCUAUAUAAGTT against Acad8, for which the z-score was inactive: -0.0132.

In the case of GGGUCUAAAGAUAUCUGUUTT against Rbm12, the z-score is inactive: -1.38.

Consider “CGAGAAAGCAUAUAUAAUGTT against C130032J12Rik”, for which the z-score was inactive: -0.613.

As to “CCUUAUUGACAGACGAGAGTT against 1110003E08Rik”, the z-score was inactive: 1.31.

As for CGCUCCAUUGCUCAGUAUUTT against Vtn, the z-score is inactive: -0.371.

As to “GGAAAAUUGAGAUUUCUGCTT against 1110003E01Rik”, the z-score is inactive: 1.52.

For GGCUUUACAGAUGUUAAAUTT against Ak3l, the z-score was inactive: 0.84.

For CCAAACUAUACUGACAGGUTT against Ppp4r2, the z-score is inactive: -1.52.

With “GGAAAUGAUAUUUGCCUGATT against 1110012L19Rik”, the z-score was inactive: -1.05.

Take CCAAGUCACGCACCAAAAATT against Zfp64: the z-score is inactive: -3.37.

In the case of GGCUUCAUCAAGGUUCAGCTT against Rassf1, the z-score was inactive: 0.915.

With GGGAAGCUUUUCUUAUCAGTT against V1rb6, the z-score is inactive: 0.64.

On to GGCCCAAACACGUGUAAAATT against Jarid1b, for which the z-score is inactive: 1.71.

Turning to GCCUGGUGGAAUAAGAAUUTT against BC005682, the z-score was inactive: 0.0532.

Consider “GGCAAUUACCCACCCUGUUTT against 2210010L05Rik”, for which the z-score is inactive: -0.701.

On to CGUCCUGUCGCUGAUUAAATT against Tcl1, for which the z-score was inactive: -0.297.

Regarding GGAAUUCAGCUUUGUGCAATT against Asl, the z-score is inactive: 0.319.

Consider GCCUGUCUGCCUUUGCUUCTT against Hist1h4i, for which the z-score was inactive: -0.715.

As for GGAAAACAUUAAGAGUACATT against Kdelr3, the z-score is inactive: 0.126.

Regarding GGUAGCUAUUAUCAACAACTT against Prss21, the z-score is inactive: 1.57.

In the case of GGAUAAUGUGAUAACACUCTT against BC025575, the z-score was inactive: -0.262.

In the case of GUAUGCCCACAUUCCAGACTT against Npff, the z-score was inactive: -0.0083.

On to GGAGUUCUUGGAGCAUCAGTT against Zfp526, for which the z-score was inactive: -1.02.

Turning to GGAGAUUCAGAAUUACUGATT against Ccm1, the z-score was inactive: -0.31.

On to CCUCCUGUUUUUUUCUGUGTT against Olfr96, for which the z-score is inactive: -0.29.

As to CAAAGCAUGUAACAUCCAATT against Cfhrb_4/2, the z-score was inactive: -0.885.

In the case of “GGAGAUCCAAUGAACCUACTT against 4932414J04”, the z-score is inactive: 0.41.

With GCCUUUAUUAAGGUUGAAATT against Vcl, the z-score was inactive: 0.498.

For the sequence GGUUGACUGAAUGAUGGAATT against Tcl1b3, the z-score is inactive: 0.81.

In the case of GCCUGUGUGAUUGCUUCAGTT against Plac8, the z-score was inactive: -2.47.

Consider GGGACCAAAGGAAACUUCATT against Eif2s3y, for which the z-score is inactive: -2.97.

Turning to CCAACCUAAACCAUGUACATT against BC030476, the z-score was inactive: 0.0751.

Turning to GGUUCAGCUGACGUAAAAATT against LOC434439, the z-score was inactive: 0.3.

For the sequence GCUAUCGAUUGUUACACCGTT against Adrb2, the z-score was inactive: 0.862.

GGCAAAUCAUUGAUCAGAATT against Mtrf1: the z-score was inactive: -1.16.

With GGACAACUAUUUUGUGAGATT against Kcnj9, the z-score was inactive: -0.186.

GGUUAUCGGUUGUACAUAUTT against Chd3: the z-score is inactive: 1.71.

Regarding GGGAAAAAAAAGCUCUUAATT against Usp43, the z-score was inactive: 0.284.

Turning to CCUGGUUAUAACUCUAAAGTT against Rad54l, the z-score is inactive: -0.821.

For the sequence “GGAUCCUAAAACUGAGGAATT against 4632407F12Rik”, the z-score was inactive: -2.61.

CCUACUAAACUCAGUCUUUTT against Kap: the z-score was inactive: -0.469.

As to GGAAAACACCGCAUAUAAUTT against Ss18l1, the z-score was inactive: 1.33.

For the sequence GGUGCUGUUGGUAUAUUAUTT against Ssr2, the z-score is inactive: -0.305.

For GGCAAUGAGUUCUGGAGUGTT against Capn8, the z-score is inactive: -0.268.

With “CGACAUAGCUUCUGUACUGTT against 1700026L06Rik”, the z-score is inactive: 0.57.

Turning to “GCAACGACUCAACCAAUUCTT against 3110043L15Rik”, the z-score was inactive: -0.83.

For GGGAAAGCAGAUCCACAACTT against Adh1, the z-score was inactive: -0.639.

For the sequence GGAAUUUGCCAAAGACCUGTT against Phf13, the z-score is inactive: 0.943.

Take GGAACACAAGCAACAACCATT against Nut: the z-score was inactive: 1.7.

For GGAAGCUGAACUCCUGAAATT against Stmn4, the z-score is inactive: -2.97.

In the case of GGUGGAAUAUUUCAUGGACTT against Csnk2a1, the z-score is inactive: 0.627.

GGAGAGGAAGCCUAUGAACTT against Zfp180: the z-score was inactive: -0.305.

GUUCAUUCUUGAAGGCCUGTT against Olfr1039: the z-score was inactive: 0.546.

For the sequence UUGACUCACCUUCCGAGGUTT against Sprrl3, the z-score is inactive: -0.238.

Consider “GGAAGUAAAAACAUACCUUTT against 2510006C20Rik”, for which the z-score was inactive: 0.933.

Consider “GGAACAGAUACCUUUCUAUTT against 2310011G06Rik”, for which the z-score was inactive: -1.19.

In the case of GGCUGUUUUUACACUUCGCTT against Olfr1395, the z-score is inactive: 0.386.

For GGUGCCCACCAAUCAACAUTT against Slc9a3r1, the z-score is inactive: -0.415.

On to GGUACCUAUUGAGAUCAAGTT against Pte1, for which the z-score was inactive: -0.452.

For the sequence GGAAAGUCCUUCCUUUUGGTT against Zfp179, the z-score is inactive: -0.755.

Consider GGGUCAUAAAGGAUUUCAUTT against Ppih, for which the z-score is inactive: -1.79.

For GCUCAUUGCCAAGAUGACATT against Tcea3, the z-score is inactive: 0.923.

For the sequence CGGACUCUGUGUUCUUAGATT against Alg3, the z-score is inactive: 0.263.

On to GCUCUAUCACUCGUUGAAGTT against Trim27, for which the z-score was inactive: -0.234.

In the case of CCUCGAAAUACGAAGGCAATT against X83328, the z-score is inactive: -1.13.

GCCAACCAAAACCUAAGCATT against Gja7: the z-score is inactive: 2.59.

On to GGAGAUGCCAGAGGUCAAATT against Gzmk, for which the z-score is inactive: -0.932.

With “GGCAGAGAAAAGGACCUUUTT against 2400002F11Rik”, the z-score was inactive: -1.69.
